Measurements reported in publication PMC11428279 (ACS Central Science, 2024).
Square brackets hold non-standard residues; d marks the D form. Ends that are not written are not given here. * marks the point of attachment. Pen = CC(C)(S)[C@H](N)C(=O)O; dOrn = NCCC[C@@H](N)C(=O)O; Nonanoyl = CCCCCCCCC(=O)*; Orn = NCCC[C@H](N)C(=O)O; Dap = NC[C@H](N)C(=O)O; Alloc = C=CCOC(=O)*

Experiment: general procedure: Fmoc solid-phase peptide synthesis; 2-chlorotrityl chloride resin (100–200 mesh, 0.4–1.0 mmol/g; loading 0.6 mmol/g); HCTU/DIPEA
Details: whole synthesis, TFA salt; for final HPLC purity: 214 nm
[1] = scale of the general procedure 0.1 mmol
[2] = scale of the general procedure 0.1 mmol, cyclic, sequence written open
[3] = scale 10 mmol, cyclic, sequence written open
[4] = scale of the general procedure 0.1 mmol, side-chain lactam ring, sequence written open

Substance	final HPLC purity [1]	isolated mass	isolated yield [1]	other results
2,4-DCB-D-Ser-D-Tyr-D-Trp-D-Orn-Orn-Gly- D-Orn-Trp-Thr-Ile-Asn-Gly-Gly	97.74%	14.5 mg	8.85%	–
7-methyloctanoyl-D-Ser-D-Tyr-D-Trp-D-Orn-Orn-Gly- D-Orn-Trp-Thr-Ile-Asn-Gly-Gly	–	–	–	final HPLC purity [2]: 95.12%; isolated yield (overall, scale of the general procedure 0.1 mmol, cyclic, sequence written open): 17.07%; isolated mass (scale 0.1 mmol, cyclic, sequence written open): 27.4 mg; isolated mass [3]: 1600 mg; isolated yield [3]: 9.9%
H-Thr-Ile-Asn-Gly-Gly	–	–	–	final HPLC purity [2]: 95.54%; isolated mass (cyclic, sequence written open): 3.9 mg; isolated yield [2]: 8.38%
H-[dS][dY][dW][dOrn][Orn]G[dOrn]WTINGG	95.45%	4.2 mg	2.94%	–
Nonanoyl-D-Ser-D-Tyr-D-Trp-D-Orn-Orn-Gly- D-Orn-Trp-2,3-Dab-Ile-Asn-Gly-Gly	–	–	–	final HPLC purity [4]: 95.74%; isolated mass (side-chain lactam ring, sequence written open): 51.9 mg; isolated yield [4]: 37.34%
Nonanoyl-D-Ser-D-Tyr-D-Trp-D-Orn-Orn-Gly- D-Orn-Trp-AzidoThr-Ile-Asn-Gly-Gly-NH2	95.88%	24.8 mg	15.05%	–
Nonanoyl-[dS][dY][dW][dOrn][Orn]G[dOrn]ATINGG	98.01%	2.7 mg	2.1%	–
Nonanoyl-[dS][dY][dW][dOrn][Orn]G[dOrn]WSINGG	95.04%	28.2 mg	17.71%	–
Nonanoyl-[dS][dY][dW][dOrn][Orn]G[dOrn]WTANGG	97.67%	30.1 mg	19.27%	–
Nonanoyl-[dS][dY][dW][dOrn][Orn]G[dOrn]WTIAGG	98.81%	3.8 mg	2.43%	–
Nonanoyl-[dS][dY][dW][dOrn][Orn]G[dOrn]WTINAG	95.20%	7.4 mg	4.57%	–
Nonanoyl-[dS][dY][dW][dOrn][Orn]G[dOrn]WTING-NH2	97.38%	70.7 mg	45.17%	–
Nonanoyl-[dS][dY][dW][dOrn][Orn]G[dOrn]WTINGA	96.08%	5.5 mg	3.39%	–
Nonanoyl-[dS][dY][dW][dOrn][Orn]G[dOrn]WTINGG	98.79%	15.2 mg	9.47%	–
Nonanoyl-[dS][dY][dW][dOrn][Orn]G[dOrn]WTINGG-NH2	96.97%	81.9 mg	50.46%	–
Nonanoyl-[dS][dY][dW][dOrn][Orn]G[dOrn]WTINGG-OH	95.18%	41.3 mg	25.47%	–
Nonanoyl-[dS][dY][dW][dOrn][Orn]G[dOrn]W[Dap](Alloc)INGG-NH2	95.81%	84.4 mg	49.91%	–
Nonanoyl-[dS][dY][dW][dOrn][Orn]G[dOrn]W[Dap]INGG	99.5%	2.7 mg	2.69%	–
Nonanoyl-[dS][dY][dW][dOrn][Orn]G[dOrn]W[Pen]INGC (cysteine pairing not given here)	96.48%	61.2 mg	36.06%	–
